The other results are listed elsewhere or left out.
Compound: Cc1cc(ccc1-c1ccccc1)C(=O)N1CCCN(CC1)C(=O)CCl [compound 10]
Assay: probe-labelled cysteine peptide fold change vs DMSO (competition) (log2 fold change); higher = less target engagement (more negative = stronger competition)
Details: THP-1, incubation time: 4 h
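Note: competitive profiling in live THP-1 cells: cysteine peptides tagged with an iodoacetamide desthiobiotin (IA-DTB) probe, intensity after compound treatment relative to DMSO-treated cells.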

The chains behind the UniProt entries cited, without tags or fusion partners. Where a name states a change or a piece, a line headed by the entry shows the natural chain unless it says otherwise.
UniProt P51825: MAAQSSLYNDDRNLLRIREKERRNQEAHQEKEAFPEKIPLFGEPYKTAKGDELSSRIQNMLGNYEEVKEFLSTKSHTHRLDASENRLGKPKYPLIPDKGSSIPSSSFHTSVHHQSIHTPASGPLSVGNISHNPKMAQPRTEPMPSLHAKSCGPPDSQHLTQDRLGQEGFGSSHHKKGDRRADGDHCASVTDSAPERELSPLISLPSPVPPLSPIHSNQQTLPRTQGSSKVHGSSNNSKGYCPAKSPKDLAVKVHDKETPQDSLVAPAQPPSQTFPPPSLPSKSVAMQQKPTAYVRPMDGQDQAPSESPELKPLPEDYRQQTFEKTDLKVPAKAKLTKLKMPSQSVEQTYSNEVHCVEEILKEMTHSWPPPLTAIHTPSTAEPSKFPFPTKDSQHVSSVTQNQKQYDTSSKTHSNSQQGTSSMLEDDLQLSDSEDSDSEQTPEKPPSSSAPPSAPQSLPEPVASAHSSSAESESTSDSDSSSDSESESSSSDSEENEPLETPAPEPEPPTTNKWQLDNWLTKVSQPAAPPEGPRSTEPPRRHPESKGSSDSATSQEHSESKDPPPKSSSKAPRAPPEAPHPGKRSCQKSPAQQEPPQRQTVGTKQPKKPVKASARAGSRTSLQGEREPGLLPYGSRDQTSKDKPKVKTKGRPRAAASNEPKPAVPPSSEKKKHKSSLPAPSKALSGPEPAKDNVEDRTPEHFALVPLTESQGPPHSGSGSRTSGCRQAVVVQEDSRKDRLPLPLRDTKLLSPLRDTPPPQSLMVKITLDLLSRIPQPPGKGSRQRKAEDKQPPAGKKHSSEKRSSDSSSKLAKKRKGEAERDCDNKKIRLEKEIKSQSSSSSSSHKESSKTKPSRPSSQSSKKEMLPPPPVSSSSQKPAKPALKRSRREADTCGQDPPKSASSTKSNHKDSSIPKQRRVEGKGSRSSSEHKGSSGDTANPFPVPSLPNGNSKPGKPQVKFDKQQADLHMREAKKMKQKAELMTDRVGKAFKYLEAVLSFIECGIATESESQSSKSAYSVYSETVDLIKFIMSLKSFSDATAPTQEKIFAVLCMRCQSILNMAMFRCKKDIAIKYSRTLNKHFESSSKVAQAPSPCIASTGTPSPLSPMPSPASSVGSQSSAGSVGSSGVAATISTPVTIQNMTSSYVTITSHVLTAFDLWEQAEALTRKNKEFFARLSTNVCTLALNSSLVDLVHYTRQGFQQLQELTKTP
UniProt Q53H12: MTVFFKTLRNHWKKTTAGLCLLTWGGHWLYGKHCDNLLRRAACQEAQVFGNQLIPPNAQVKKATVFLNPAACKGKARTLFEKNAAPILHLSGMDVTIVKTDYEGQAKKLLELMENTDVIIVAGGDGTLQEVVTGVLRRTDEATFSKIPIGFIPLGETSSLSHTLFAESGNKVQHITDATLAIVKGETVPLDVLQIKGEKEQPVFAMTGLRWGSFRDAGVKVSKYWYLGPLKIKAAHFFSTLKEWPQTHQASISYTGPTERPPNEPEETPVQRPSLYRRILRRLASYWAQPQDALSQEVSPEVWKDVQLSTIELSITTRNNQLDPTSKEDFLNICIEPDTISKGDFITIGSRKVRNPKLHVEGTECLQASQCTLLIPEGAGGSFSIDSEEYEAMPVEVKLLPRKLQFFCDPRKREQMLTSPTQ
UniProt O96019, whole entry, looked up: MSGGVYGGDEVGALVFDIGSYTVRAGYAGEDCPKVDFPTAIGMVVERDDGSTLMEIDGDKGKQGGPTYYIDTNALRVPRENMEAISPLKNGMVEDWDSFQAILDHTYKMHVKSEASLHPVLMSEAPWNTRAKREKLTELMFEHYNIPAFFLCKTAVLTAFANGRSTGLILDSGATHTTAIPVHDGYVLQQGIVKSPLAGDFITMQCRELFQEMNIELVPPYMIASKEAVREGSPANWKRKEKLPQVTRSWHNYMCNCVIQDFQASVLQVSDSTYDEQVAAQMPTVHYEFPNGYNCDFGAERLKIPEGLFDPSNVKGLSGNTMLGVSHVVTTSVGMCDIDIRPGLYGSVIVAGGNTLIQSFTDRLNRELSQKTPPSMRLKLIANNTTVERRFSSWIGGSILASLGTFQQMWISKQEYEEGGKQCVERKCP
UniProt Q96CM8: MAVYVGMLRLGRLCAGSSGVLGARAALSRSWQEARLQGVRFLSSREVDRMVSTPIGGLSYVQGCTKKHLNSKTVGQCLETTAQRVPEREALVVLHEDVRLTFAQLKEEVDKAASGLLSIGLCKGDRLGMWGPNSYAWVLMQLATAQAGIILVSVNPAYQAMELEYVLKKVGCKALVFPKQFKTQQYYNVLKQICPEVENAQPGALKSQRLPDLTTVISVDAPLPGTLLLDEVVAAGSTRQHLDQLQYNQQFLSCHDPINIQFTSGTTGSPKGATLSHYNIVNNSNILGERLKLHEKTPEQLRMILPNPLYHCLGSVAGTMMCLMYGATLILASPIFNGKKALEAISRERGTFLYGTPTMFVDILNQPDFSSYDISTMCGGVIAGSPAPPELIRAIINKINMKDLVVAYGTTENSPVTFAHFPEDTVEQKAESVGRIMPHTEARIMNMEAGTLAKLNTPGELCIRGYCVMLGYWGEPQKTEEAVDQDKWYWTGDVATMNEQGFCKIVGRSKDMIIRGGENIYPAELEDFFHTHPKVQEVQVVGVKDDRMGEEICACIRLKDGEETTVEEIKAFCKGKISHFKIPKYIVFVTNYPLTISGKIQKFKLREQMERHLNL
UniProt P35573: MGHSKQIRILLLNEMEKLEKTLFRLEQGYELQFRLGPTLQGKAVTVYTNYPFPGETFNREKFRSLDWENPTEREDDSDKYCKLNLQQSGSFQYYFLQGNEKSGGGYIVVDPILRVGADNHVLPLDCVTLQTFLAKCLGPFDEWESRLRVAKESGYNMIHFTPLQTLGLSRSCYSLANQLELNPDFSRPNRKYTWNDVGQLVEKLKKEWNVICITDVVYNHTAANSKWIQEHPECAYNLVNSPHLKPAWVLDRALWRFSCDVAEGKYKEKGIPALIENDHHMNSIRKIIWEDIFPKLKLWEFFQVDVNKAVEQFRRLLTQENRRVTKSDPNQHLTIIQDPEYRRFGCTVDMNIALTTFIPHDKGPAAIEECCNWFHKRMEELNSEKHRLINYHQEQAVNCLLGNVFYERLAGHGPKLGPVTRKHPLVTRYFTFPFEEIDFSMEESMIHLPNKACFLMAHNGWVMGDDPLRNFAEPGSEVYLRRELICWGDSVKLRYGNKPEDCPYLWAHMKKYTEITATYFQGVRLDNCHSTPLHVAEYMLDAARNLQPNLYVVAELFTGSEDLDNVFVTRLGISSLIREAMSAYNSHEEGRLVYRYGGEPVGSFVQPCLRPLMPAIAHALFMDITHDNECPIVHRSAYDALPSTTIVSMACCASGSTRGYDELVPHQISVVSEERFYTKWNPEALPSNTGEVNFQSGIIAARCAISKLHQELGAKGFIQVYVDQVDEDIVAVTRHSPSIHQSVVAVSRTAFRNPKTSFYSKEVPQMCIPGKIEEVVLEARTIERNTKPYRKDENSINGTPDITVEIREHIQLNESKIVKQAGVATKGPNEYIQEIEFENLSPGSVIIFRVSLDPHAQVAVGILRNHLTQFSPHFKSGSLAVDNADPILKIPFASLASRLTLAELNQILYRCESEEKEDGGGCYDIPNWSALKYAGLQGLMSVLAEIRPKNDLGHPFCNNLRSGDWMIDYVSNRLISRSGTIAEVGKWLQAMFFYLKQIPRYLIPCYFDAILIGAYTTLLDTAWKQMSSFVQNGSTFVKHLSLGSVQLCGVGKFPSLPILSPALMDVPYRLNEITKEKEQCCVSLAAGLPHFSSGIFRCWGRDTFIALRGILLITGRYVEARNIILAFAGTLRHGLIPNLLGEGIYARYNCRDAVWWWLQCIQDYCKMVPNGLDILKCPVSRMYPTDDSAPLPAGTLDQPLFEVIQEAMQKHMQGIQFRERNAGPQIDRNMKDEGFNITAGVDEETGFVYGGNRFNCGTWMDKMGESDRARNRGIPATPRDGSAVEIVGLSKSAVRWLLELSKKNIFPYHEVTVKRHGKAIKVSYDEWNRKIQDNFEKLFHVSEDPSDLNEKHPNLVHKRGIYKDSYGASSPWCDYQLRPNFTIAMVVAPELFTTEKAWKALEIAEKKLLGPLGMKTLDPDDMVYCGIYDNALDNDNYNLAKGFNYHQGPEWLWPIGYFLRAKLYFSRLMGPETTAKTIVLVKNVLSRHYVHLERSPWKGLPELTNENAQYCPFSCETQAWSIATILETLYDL
UniProt Q15067: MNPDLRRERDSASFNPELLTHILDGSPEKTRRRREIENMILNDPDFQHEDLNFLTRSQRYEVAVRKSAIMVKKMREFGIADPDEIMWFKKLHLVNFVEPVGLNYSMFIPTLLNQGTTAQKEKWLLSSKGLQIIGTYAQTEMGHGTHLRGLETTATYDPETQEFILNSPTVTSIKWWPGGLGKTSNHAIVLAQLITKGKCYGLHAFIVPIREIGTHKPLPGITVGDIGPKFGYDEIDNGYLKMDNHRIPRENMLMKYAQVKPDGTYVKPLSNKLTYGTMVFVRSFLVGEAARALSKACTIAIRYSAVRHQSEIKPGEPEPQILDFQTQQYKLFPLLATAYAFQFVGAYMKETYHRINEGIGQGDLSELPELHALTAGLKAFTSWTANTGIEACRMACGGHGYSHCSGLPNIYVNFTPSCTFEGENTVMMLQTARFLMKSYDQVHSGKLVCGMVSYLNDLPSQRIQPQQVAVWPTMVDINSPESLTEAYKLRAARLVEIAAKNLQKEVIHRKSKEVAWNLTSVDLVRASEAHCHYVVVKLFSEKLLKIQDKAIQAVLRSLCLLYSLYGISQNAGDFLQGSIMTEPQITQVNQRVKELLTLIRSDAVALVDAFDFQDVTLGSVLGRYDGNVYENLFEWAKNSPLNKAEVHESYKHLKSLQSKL
UniProt O95490: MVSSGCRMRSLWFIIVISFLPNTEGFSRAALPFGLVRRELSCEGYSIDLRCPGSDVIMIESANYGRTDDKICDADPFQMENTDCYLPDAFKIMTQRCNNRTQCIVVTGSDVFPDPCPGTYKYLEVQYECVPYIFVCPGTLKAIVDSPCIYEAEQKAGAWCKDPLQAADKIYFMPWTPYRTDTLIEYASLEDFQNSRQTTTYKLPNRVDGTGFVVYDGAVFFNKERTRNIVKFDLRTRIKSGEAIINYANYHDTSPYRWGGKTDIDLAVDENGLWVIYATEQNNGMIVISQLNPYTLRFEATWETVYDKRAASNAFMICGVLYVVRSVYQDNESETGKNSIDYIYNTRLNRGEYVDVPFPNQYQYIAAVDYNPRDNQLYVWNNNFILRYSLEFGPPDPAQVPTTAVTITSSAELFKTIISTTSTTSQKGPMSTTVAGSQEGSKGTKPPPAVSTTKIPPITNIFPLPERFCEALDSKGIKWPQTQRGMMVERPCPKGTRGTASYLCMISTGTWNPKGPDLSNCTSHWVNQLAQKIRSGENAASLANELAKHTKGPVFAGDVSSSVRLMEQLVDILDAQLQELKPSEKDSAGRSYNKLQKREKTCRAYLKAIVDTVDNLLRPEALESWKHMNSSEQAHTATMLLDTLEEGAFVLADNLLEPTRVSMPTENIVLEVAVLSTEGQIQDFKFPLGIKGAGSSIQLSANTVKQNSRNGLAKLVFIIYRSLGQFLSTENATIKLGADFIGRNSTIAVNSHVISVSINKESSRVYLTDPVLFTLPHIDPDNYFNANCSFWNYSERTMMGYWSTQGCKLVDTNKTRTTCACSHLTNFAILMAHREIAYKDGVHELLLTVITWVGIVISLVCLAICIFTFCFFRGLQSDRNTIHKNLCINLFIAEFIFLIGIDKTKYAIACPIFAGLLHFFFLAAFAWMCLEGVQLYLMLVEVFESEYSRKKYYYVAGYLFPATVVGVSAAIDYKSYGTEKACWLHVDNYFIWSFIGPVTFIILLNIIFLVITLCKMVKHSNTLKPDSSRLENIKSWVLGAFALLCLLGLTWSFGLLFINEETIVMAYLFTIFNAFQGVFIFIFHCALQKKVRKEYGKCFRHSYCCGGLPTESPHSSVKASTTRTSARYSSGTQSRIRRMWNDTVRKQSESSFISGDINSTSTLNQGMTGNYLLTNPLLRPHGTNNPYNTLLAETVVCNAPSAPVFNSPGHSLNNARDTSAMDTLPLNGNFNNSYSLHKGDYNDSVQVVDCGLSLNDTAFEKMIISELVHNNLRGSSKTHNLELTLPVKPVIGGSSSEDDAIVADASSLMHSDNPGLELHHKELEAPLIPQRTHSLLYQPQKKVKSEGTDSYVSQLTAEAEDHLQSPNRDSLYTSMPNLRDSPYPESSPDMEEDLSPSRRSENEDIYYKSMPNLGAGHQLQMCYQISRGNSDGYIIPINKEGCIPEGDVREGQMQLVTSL

Target	probe-labelled cysteine peptide fold change (10 µM)	probe-labelled cysteine peptide fold change (50 µM)
AFF1_P51825_1181_LSTNVCTLALNSSLVDLVHYTR (UniProt P51825)	-0.147	-0.00592
AFF4_Q9UHB7_315_IPSQPLDASASGDVSCVDEILK (UniProt Q9UHB7)	-0.259	-0.257
ACSL1_P33121_132_QVAELSECIGSALIQK (UniProt P33121)	0.021	0.0843
AGK_Q53H12_408_LQFFCDPR (UniProt Q53H12)	-0.143	0.247
ADH5_P11766_111_TNLCQK (UniProt P11766)	-0.0131	-0.432
AGO1_Q9UL18_304_RPASHQTFPLQLESGQTVECTVAQYFK (UniProt Q9UL18)	0.0164	0.0671
ACTL6A_O96019_152_EKLTELMFEHYNIPAFFLCK (UniProt O96019)	0.164	-0.352
ACSF2_Q96CM8_122_AASGLLSIGLCK (UniProt Q96CM8)	-0.0881	-0.143
ACTR3_P61158_8_LPACVVDCGTGYTK (UniProt P61158)	-0.09	-0.163
AGL_P35573_126_VGADNHVLPLDCVTLQTFLAK (UniProt P35573)	0.128	0.0379
ADGRL3_Q9HAR2_36_ELSCESYPIELR (UniProt Q9HAR2)	-0.163	0.0665
ADAR_P55265_649_FQYCVAVGAQTFPSVSAPSKK (UniProt P55265)	0.159	-0.443
ACOX1_Q15067_392_AFTSWTANTGIEACR (UniProt Q15067)	0.0592	0.0993
ADGRL2_O95490_136_YLEVQYECVPYIFVCPGTLK (UniProt O95490)	0.0252	0.148

Some of the entries so far, with bars between the fields:
Target | probe-labelled cysteine peptide fold change (10 µM) | probe-labelled cysteine peptide fold change (50 µM)
AGO1_Q9UL18_304_RPASHQTFPLQLESGQTVECTVAQYFK (UniProt Q9UL18) | 0.0164 | 0.0671
ACTL6A_O96019_152_EKLTELMFEHYNIPAFFLCK (UniProt O96019) | 0.164 | -0.352
ACSF2_Q96CM8_122_AASGLLSIGLCK (UniProt Q96CM8) | -0.0881 | -0.143
